# Screening data

From PubChem BioAssay record AID1159506 (NCATS, 2015).

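Genome-wide siRNA knockdown in TC32 Ewing sarcoma cells, comparing luciferase light from an NR0B1-promoter reporter with a CMV-promoter reporter 48 hours after transfection. Each siRNA was applied at 20 nM. A z-score of the log NR0B1-over-CMV signal, less the median of siRNAs with the same seed; more negative means a stronger specific loss of the NR0B1 reporter.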

This is part of the screen; most of the strongest results are not listed here. Sequences are the guide (antisense) strand, without overhang.

| Sequence | gene | seed-corrected z-score |
|---|---|---|
| `AUACGUGAAAUGUCAGUCC` | THAP6 | -0.6104 |
| `UCGAUUCGAAGAUUAGUUG` | SOCS2 | 0.02719 |
| `UACUUAAGAAGAGACCCUC` | CAD | -1.684 |
| `AAGGUUUAGUGUUUCUUCC` | POMK | 1.134 |
| `UUUAUUUUCACCUCCACCU` | LYPD5 | -0.3222 |
| `AAUAUUCACGUGCCUGAUG` | C1orf95 | -0.4213 |
| `UGACGGUUCUCUAUGAGGA` | CT47A11 | -0.2299 |
| `UUAUCUAUUCCAUUCGUGC` | WWP1 | -0.1699 |
| `AAUGUUAUGAAGUUUACGG` | DYRK1A | 1.487 |
| `UUUGGUGCUGGGUAGAUCC` | BET1L | -1.177 |
| `UUAUCCUCGAUAAACCGCG` | SALL3 | -0.007088 |
| `AUAACUGAUGUUUAGGUGG` | NUS1 | 0.2428 |
| `UCUAGUACAAACAUGGGUG` | CEP126 | -1.3 |
| `UAACUGCAAAGUCAAUGUG` | PBOV1 | -0.1025 |
| `UUGCUUGCAAAAUUCCUCC` | EDARADD | 1.643 |
| `UCUGAUAAAUUGAUCCUCC` | VDAC2 | 0.1632 |
| `UAACGGACAACCAGCUUCA` | LIN7B | 0.3707 |
| `ACCAAUAUCAGCUCCGACC` | LOC729296 | 0.6688 |
| `UCUGUUAGUACAGUUGAUC` | C9orf43 | -1.22 |
| `AGAUGUACACCUUCAUUCC` | ENOPH1 | -1.203 |
| `UAUCAGGCAAGUUAGGAAG` | COPS4 | -0.4351 |
| `UUUCCGAUAUAUUAAGCAC` | IL1R1 | -0.2089 |
| `UGCUCUACUACGGAAGCUC` | ZNF225 | 0.4375 |
| `UUACCUGCAGACACGCUCC` | LOC642620 | -1.973 |
| `UAUUGUCUGCUAUAGAACC` | LOC81691 | 0.4889 |
| `UCCAUUUCAACUUUGUCUG` | CCDC58 | -0.9858 |
| `UUACUUGACAGUUCUUGAG` | GSK3B | -0.6079 |
| `UCAGGGUCAGCCGAUAUGU` | TDRP | 1.986 |
| `UUUCCGCAAAGAGUCAUUG` | RBM48 | 0.2975 |
| `UCUGAACCCAGGAAUACGC` | NR1D2 | 0.1786 |
| `AACCAUCUCAGUCCAAAGC` | PBLD | -0.9134 |
| `UUGUGGACCAGUUAAAGGU` | ZNF138 | 0.04479 |
| `UCUGUCAUUCCUUAAGUGC` | CDY2A | 0.1532 |
| `AUCGAAACUAACAUCAGGC` | NDUFAF1 | 0.9036 |
| `UAAGGUCUGCUGUUCCUCC` | ZNF76 | -0.3171 |
| `UCACCAACCAACUAGGCUG` | DSE | -0.6212 |
| `UGCUGCAUUAACAUUUGGU` | SKP1P2 | -0.2523 |
| `UCACGGUAAGCUUUGGUGC` | STX8 | -1.002 |
| `UGUGGAGAAACCGUUUUGC` | SCAF1 | 0.07511 |
| `ACAAUGUCUACAUUGGUGC` | ZFY | -0.3676 |
| `UUCAAGAUCCCUGUGAGGC` | BPIFA1 | 0.1501 |
| `AUAGAGUAAAACACCAUUC` | ZFYVE26 | -0.1577 |
| `AUUGUGAACAGAGUCUGUC` | FAM172A | -0.7504 |
| `AUGGAUACCAUCAAGAAUC` | CDK19 | -1.437 |
| `UGACUUAGUAAUGUAGCUC` | ZNF223 | -0.7829 |
| `UUAACACCGAGGGAGGACU` | LINC-PINT | 0.1335 |
| `UACGGUCCACUGGACAUGU` | RNF41 | 0.2821 |
| `AAAAUAGUCCCUGUGUCGC` | HES3 | 0.2379 |
| `UUCAGCAUCAUACCAUUCC` | CCDC50 | 0.1096 |
| `UGGACUUCUACUUUUGCAC` | TBCEL | 0.04568 |
| `UGAAGUACAGUGAGUGUCG` | ATG4D | 0.06523 |
| `UCCCUCUUCUCUUAGAUCC` | IL23A | -0.218 |
| `AAGGGACAGAUGUAGUUGG` | ROMO1 | -1.38 |
| `UCACAGGUAAAUCUCAUCU` | UBE2G2 | -0.01157 |
| `UUUGAUACAGAUCAGUUCA` | ACKR4 | 0.01589 |
| `UAUGCAACUUCUGAUAGGA` | MEX3A | 0.1245 |

Once more, the final 6:

Sequence,gene,seed-corrected z-score
UGAAGUACAGUGAGUGUCG,ATG4D,0.06523
UCCCUCUUCUCUUAGAUCC,IL23A,-0.218
AAGGGACAGAUGUAGUUGG,ROMO1,-1.38
UCACAGGUAAAUCUCAUCU,UBE2G2,-0.01157
UUUGAUACAGAUCAGUUCA,ACKR4,0.01589
UAUGCAACUUCUGAUAGGA,MEX3A,0.1245